Positions count from the first letter of the chain named. Names may count otherwise. Results are given in words; binding and its absence hold for the method and conditions named. Binding seen in cells or lysates may run through a third protein. Some entries that bind do so weakly or less than the wild type. One block for each binder: values may come before it.
Target: T1, Ty1 Gag (in virus-like particles) (S. cerevisiae) (UniProt P08405)
T1 sequence: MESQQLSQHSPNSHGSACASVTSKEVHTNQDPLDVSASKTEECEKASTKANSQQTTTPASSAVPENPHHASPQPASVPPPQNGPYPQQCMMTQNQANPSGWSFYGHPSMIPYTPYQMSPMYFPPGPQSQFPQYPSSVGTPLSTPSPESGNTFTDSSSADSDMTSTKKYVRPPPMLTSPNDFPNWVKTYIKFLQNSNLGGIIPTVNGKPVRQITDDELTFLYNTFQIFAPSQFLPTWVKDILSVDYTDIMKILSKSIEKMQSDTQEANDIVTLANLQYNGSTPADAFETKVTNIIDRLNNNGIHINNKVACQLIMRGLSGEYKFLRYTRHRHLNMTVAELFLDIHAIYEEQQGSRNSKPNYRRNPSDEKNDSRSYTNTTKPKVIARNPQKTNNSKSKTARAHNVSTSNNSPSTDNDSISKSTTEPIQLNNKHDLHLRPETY
Assay: co-sedimentation; protein extracts of galactose-induced yeast co-expressing Ty1 and the restriction factor, 7-47% continuous sucrose gradient, 25,000 rpm 3 h 4 °C, fractions immunoblotted (anti-TY for Gag, anti-hexa-histidine for p18 constructs)

binding: binds
B1: p18m_AUG1, Ty1 Gag residues M249-N355 (crystallised) (domain or fragment, S. cerevisiae, UniProt P08405 249-355, looked up)
chain: MKILSKSIEKMQSDTQEANDIVTLANLQYNGSTPADAFETKVTNIIDRLNNNGIHINNKVACQLIMRGLSGEYKFLRYTRHRHLNMTVAELFLDIHAIYEEQQGSRN
notes: S. cerevisiae Ty1A (Ty1 Gag), Uniprot P08405, residues M249-N355, starting at the AUG1 methionine; Residues D262 to Q351 are visible in the map; source: E. coli BL21 (DE3), purified (Ni-NTA, carboxypeptidase A digestion, gel filtration)

binding: binds
B2: p18m_AUG1-I269F (expressed in yeast) (domain or fragment, UniProt P08405 249-355)
chain: B1 chain with I21F

binding: binds
B3: p18m_AUG1-A273V (expressed in yeast) (domain or fragment, UniProt P08405 249-355)
chain: B1 chain with A25V
